Experimental data taken from ChEMBL document CHEMBL5518206, “Hit-to-Lead Identification and Validation of a Triaromatic Pleuromutilin Antibiotic Candidate” (J Med Chem, 2024).
≈ marks a conversion by molar mass, not a printed value.

Legend:
[1] = Solubility of the compound in Dulbecco's PBS at 20 degree C measured after 24 hrs; conditions: buffer
in vitro = conditions: human, Caco-2

SMILES: C=C[C@]1(C)C[C@@H](OC(=O)Cn2cc(-c3ccc(Cn4cnc5c(N6CCN(C)CC6)ncnc54)cc3)nn2)[C@]2(C)[C@H](C)CC[C@]3(CCC(=O)[C@H]32)[C@@H](C)[C@@H]1O
- solubility at 24 h [1]: 23 µM (≈ 16.9 µg/mL)
- Papp A→B at 2 h, 20 µM (in vitro): 2.38 ×10⁻⁶ cm/s
